Laboratory results taken from PMC5462965.
No constants are given. Whether binding was seen depends on the method and setting. In cells and extracts the contact can be indirect. Some entries that bind do so weakly or less than the wild type. For part of these data: Sequences can lack the tags named with a protein.

Tests used:
Flag-NEURL1 (human) = biological target: T1, Flag-NEURL1 (human) (UniProt O76050); test: co-IP; lysates of 293T cells overexpressing His-neuritin and Flag-NEURL1; IP with anti-Flag and blot with anti-His, and the reverse; lysis and wash buffer 150 mM NaCl, 1% Triton-X 100, 0.5% sodium deoxycholate, Tris-HCl pH 7.5; pcDNA3.1 empty vector as control
T1 sequence: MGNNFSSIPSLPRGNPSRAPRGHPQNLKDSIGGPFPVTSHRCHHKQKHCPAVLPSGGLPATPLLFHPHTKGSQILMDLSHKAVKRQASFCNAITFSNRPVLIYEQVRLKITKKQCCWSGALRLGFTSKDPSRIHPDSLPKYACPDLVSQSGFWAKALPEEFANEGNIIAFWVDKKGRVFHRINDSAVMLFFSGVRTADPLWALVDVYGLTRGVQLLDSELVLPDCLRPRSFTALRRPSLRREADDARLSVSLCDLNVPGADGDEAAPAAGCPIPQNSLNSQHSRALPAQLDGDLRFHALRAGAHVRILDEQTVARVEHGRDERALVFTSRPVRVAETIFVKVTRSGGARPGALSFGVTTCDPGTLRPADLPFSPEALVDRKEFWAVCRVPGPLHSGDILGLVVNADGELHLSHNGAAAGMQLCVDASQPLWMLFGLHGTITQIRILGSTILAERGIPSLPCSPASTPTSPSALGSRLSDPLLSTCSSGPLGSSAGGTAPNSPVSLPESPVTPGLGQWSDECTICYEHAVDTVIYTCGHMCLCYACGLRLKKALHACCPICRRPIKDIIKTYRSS

His-neuritin (human) = biological target: T2, His-neuritin (human) (UniProt Q9NPD7); test: as above
T2 sequence: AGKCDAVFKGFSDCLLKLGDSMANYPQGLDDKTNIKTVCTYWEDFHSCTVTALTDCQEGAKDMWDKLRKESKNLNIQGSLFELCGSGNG

[1] = biological target: T3, endogenous NEURL1 of SH-SY5Y cells (human (endogenous in SH-SY5Y)) (UniProt O76050); test: co-IP; endogenous proteins of SH-SY5Y cells; IP with anti-NEURL1, blot for neuritin; IgG as control
T3 sequence: T1 sequence

B1: His-neuritin (protein, UniProt Q9NPD7 28-116)
chain: T2 sequence
In the case of B1, the binding (Flag-NEURL1 (human)) is reported as “binds”.

B2: Flag-NEURL1 (protein, UniProt O76050 1-574)
chain: T1 sequence
B2 was tested, and the binding (His-neuritin (human)) was “binds”.

B3: endogenous neuritin of SH-SY5Y cells (protein, UniProt Q9NPD7 28-116)
chain: T2 sequence
B3 was tested, and the binding [1] was “binds”.
